Values from PubChem BioAssay AID1224830 (NIAID, 2016)
Assay: 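Genes whose knock-down alters the TNF-alpha reporter response to LPS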 (primary screen). Cells: human THP-1 monocytic leukaemia cells, TNF dual-luciferase reporter clone, PMA-differentiated to macrophage-like cells. Knock-down reagent: siRNA pool against human genes, 50 nM. Time to read-out: LPS for 4 h, given about 3 days after siRNA transfection. Treatment: bacterial LPS (TLR4 ligand), 10 ng/ml. Read-out: 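TNF firefly reporter luminescence divided by renilla, normalised to the plate median, then turned into a robust z-score for each replicate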. Scale: TNF reporter robust z-score: higher = stronger TNF reporter response to LPS. Active means: 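Each well counts as active if its z-score is over 2.8 or under -1.5; controls are left without a call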.
This is one part, drawn at random, of about 18,000 deposited reagents. About 2,900 of all reagents (16%) were called active. 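Calls are made per well; low scores hint the gene aids the LPS response, high scores that it dampens it.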 Repeated entries: four replicate wells of each siRNA pool.

| Target gene | TNF reporter robust z-score | outcome |
| --- | --- | --- |
| IGSF6 (immunoglobulin superfamily member 6) | 9.77 | active |
| IGSF6 (immunoglobulin superfamily member 6) | 2.83 | active |
| IGSF6 (immunoglobulin superfamily member 6) | 0.69 | inactive |
| IGSF6 (immunoglobulin superfamily member 6) | 0.85 | inactive |
| SLC66A1 | 3.96 | active |
| SLC66A1 | 0.13 | inactive |
| SLC66A1 | 0.2 | inactive |
| SLC66A1 | 0.22 | inactive |
| TOMM40 (translocase of outer mitochondrial membrane 40) | 0.39 | inactive |
| TOMM40 (translocase of outer mitochondrial membrane 40) | 1.67 | inactive |
| TOMM40 (translocase of outer mitochondrial membrane 40) | 0.21 | inactive |
| CNTFR (ciliary neurotrophic factor receptor) | -0.86 | inactive |
| CNTFR (ciliary neurotrophic factor receptor) | 0.43 | inactive |
| CNTFR (ciliary neurotrophic factor receptor) | -0.65 | inactive |
| CNTFR (ciliary neurotrophic factor receptor) | -0.51 | inactive |
| OPTN (optineurin) | -1.07 | inactive |
| OPTN (optineurin) | -0.96 | inactive |
| OPTN (optineurin) | -1.18 | inactive |
| OPTN (optineurin) | -1.25 | inactive |
| GOLGB1 (golgin B1) | 0.22 | inactive |
| GOLGB1 (golgin B1) | 1.76 | inactive |
| GOLGB1 (golgin B1) | 1.13 | inactive |
| GOLGB1 (golgin B1) | 0.81 | inactive |
| SPA17 (sperm autoantigenic protein 17) | -0.8 | inactive |
| SPA17 (sperm autoantigenic protein 17) | -0.63 | inactive |
| SPA17 (sperm autoantigenic protein 17) | 0.2 | inactive |
| SPA17 (sperm autoantigenic protein 17) | -0.2 | inactive |
| ACKR3 (atypical chemokine receptor 3) | 0.44 | inactive |
| ACKR3 (atypical chemokine receptor 3) | 0.14 | inactive |
| ACKR3 (atypical chemokine receptor 3) | -0.19 | inactive |
| ACKR3 (atypical chemokine receptor 3) | -0.63 | inactive |
| PAGE4 (PAGE family member 4) | -0.65 | inactive |
| PAGE4 (PAGE family member 4) | -0.81 | inactive |
| PAGE4 (PAGE family member 4) | -0.48 | inactive |
| PAGE4 (PAGE family member 4) | -0.25 | inactive |
| ZCCHC7 (zinc finger CCHC-type containing 7) | -0.47 | inactive |
| ZCCHC7 (zinc finger CCHC-type containing 7) | -0.58 | inactive |
| ZCCHC7 (zinc finger CCHC-type containing 7) | -0.94 | inactive |
| ZCCHC7 (zinc finger CCHC-type containing 7) | -0.49 | inactive |
| NR5A2 (nuclear receptor subfamily 5 group A member 2) | -0.71 | inactive |
| NR5A2 (nuclear receptor subfamily 5 group A member 2) | -0.65 | inactive |
| NR5A2 (nuclear receptor subfamily 5 group A member 2) | -0.7 | inactive |
| NR5A2 (nuclear receptor subfamily 5 group A member 2) | 0.45 | inactive |
| KHSRP (KH-type splicing regulatory protein) | -0.48 | inactive |
| KHSRP (KH-type splicing regulatory protein) | -0.22 | inactive |
| KHSRP (KH-type splicing regulatory protein) | -0.86 | inactive |
| KHSRP (KH-type splicing regulatory protein) | 0.33 | inactive |
| B3GNT7 | 0.52 | inactive |
| B3GNT7 | -0.12 | inactive |
| B3GNT7 | -0.59 | inactive |
| B3GNT7 | -0.35 | inactive |
| SMUG1 | 1.2 | inactive |
| SMUG1 | 1.65 | inactive |
| SMUG1 | 1.58 | inactive |
| SMUG1 | 1.32 | inactive |
| CDK9 (cyclin dependent kinase 9) | -0.48 | inactive |
| CDK9 (cyclin dependent kinase 9) | 0.71 | inactive |
| CDK9 (cyclin dependent kinase 9) | -0.76 | inactive |
| CDK9 (cyclin dependent kinase 9) | -0.45 | inactive |
| ADCY1 (adenylate cyclase 1) | -0.56 | inactive |
| ADCY1 (adenylate cyclase 1) | 0.61 | inactive |
| ADCY1 (adenylate cyclase 1) | 0.05 | inactive |
| ADCY1 (adenylate cyclase 1) | -0.08 | inactive |
| CCND1 (cyclin D1) | 1.4 | inactive |
| CCND1 (cyclin D1) | 2.04 | inactive |
| CCND1 (cyclin D1) | 1.59 | inactive |
| CCND1 (cyclin D1) | 2.82 | active |
| STOML1 (stomatin like 1) | -0.91 | inactive |
| STOML1 (stomatin like 1) | -1.15 | inactive |
| STOML1 (stomatin like 1) | -1 | inactive |
| STOML1 (stomatin like 1) | -0.81 | inactive |
| OR2L3 (olfactory receptor family 2 subfamily L member 3) | -1.25 | inactive |
| OR2L3 (olfactory receptor family 2 subfamily L member 3) | -1.11 | inactive |
| OR2L3 (olfactory receptor family 2 subfamily L member 3) | -1.14 | inactive |
| OR2L3 (olfactory receptor family 2 subfamily L member 3) | -0.89 | inactive |
| NUDT8 (nudix hydrolase 8) | 0.06 | inactive |
| NUDT8 (nudix hydrolase 8) | 0.32 | inactive |
| NUDT8 (nudix hydrolase 8) | 0.61 | inactive |
| NUDT8 (nudix hydrolase 8) | 0.13 | inactive |
| C6orf118 (chromosome 6 open reading frame 118) | 1.05 | inactive |
| C6orf118 (chromosome 6 open reading frame 118) | 2.47 | inactive |
| C6orf118 (chromosome 6 open reading frame 118) | 0.83 | inactive |
| C6orf118 (chromosome 6 open reading frame 118) | -0.32 | inactive |
| TIMM10B (translocase of inner mitochondrial membrane 10B) | 0.54 | inactive |
| TIMM10B (translocase of inner mitochondrial membrane 10B) | 0.1 | inactive |
| TIMM10B (translocase of inner mitochondrial membrane 10B) | 0.15 | inactive |
| TIMM10B (translocase of inner mitochondrial membrane 10B) | 0.45 | inactive |
| SCN3A (sodium voltage-gated channel alpha subunit 3) | 0.87 | inactive |
| SCN3A (sodium voltage-gated channel alpha subunit 3) | 1.47 | inactive |
| SCN3A (sodium voltage-gated channel alpha subunit 3) | -0.78 | inactive |
| SCN3A (sodium voltage-gated channel alpha subunit 3) | -0.15 | inactive |
| KASH5 (KASH domain containing 5) | -0.36 | inactive |
| KASH5 (KASH domain containing 5) | -0.78 | inactive |
| KASH5 (KASH domain containing 5) | -0.7 | inactive |
| KASH5 (KASH domain containing 5) | -0.32 | inactive |
| GJC3 (gap junction protein gamma 3) | -0.39 | inactive |
| GJC3 (gap junction protein gamma 3) | 0.83 | inactive |
| GJC3 (gap junction protein gamma 3) | -0.99 | inactive |
| GJC3 (gap junction protein gamma 3) | -0.22 | inactive |
| PDZK1 (PDZ domain containing 1) | 1.62 | inactive |
| PDZK1 (PDZ domain containing 1) | 1.52 | inactive |
| PDZK1 (PDZ domain containing 1) | 2.75 | inactive |
| PDZK1 (PDZ domain containing 1) | 1.89 | inactive |
| TXNIP (thioredoxin interacting protein) | -0.93 | inactive |
| TXNIP (thioredoxin interacting protein) | -0.81 | inactive |
| TXNIP (thioredoxin interacting protein) | -0.83 | inactive |
| TXNIP (thioredoxin interacting protein) | 0.29 | inactive |
| TRPM4 | 0.38 | inactive |
| TRPM4 | 0.34 | inactive |
| TRPM4 | 0.46 | inactive |
| TRPM4 | 0.74 | inactive |
| IFT57 (intraflagellar transport 57) | -0.34 | inactive |
| IFT57 (intraflagellar transport 57) | 0.16 | inactive |
| IFT57 (intraflagellar transport 57) | 1.56 | inactive |
| IFT57 (intraflagellar transport 57) | 0.06 | inactive |
| RPRD2 (regulation of nuclear pre-mRNA domain containing 2) | -1.27 | inactive |
| RPRD2 (regulation of nuclear pre-mRNA domain containing 2) | -1.08 | inactive |
| RPRD2 (regulation of nuclear pre-mRNA domain containing 2) | -1.38 | inactive |
| RPRD2 (regulation of nuclear pre-mRNA domain containing 2) | -0.61 | inactive |
| BCKDK (branched chain keto acid dehydrogenase kinase) | -0.06 | inactive |
| BCKDK (branched chain keto acid dehydrogenase kinase) | 0.18 | inactive |
| BCKDK (branched chain keto acid dehydrogenase kinase) | 0.08 | inactive |
| BCKDK (branched chain keto acid dehydrogenase kinase) | 0.82 | inactive |
| GABRB2 (gamma-aminobutyric acid type A receptor subunit beta2) | -1.48 | inactive |
| GABRB2 (gamma-aminobutyric acid type A receptor subunit beta2) | 0.88 | inactive |
| GABRB2 (gamma-aminobutyric acid type A receptor subunit beta2) | -1.37 | inactive |
| GABRB2 (gamma-aminobutyric acid type A receptor subunit beta2) | -1.09 | inactive |
| TLX2 (T cell leukemia homeobox 2) | -0.45 | inactive |
| TLX2 (T cell leukemia homeobox 2) | 0.3 | inactive |
| TLX2 (T cell leukemia homeobox 2) | 0.23 | inactive |
| TNNT2 (troponin T2, cardiac type) | -1.25 | inactive |
| TNNT2 (troponin T2, cardiac type) | 0.14 | inactive |
| TNNT2 (troponin T2, cardiac type) | -0.91 | inactive |
| TNNT2 (troponin T2, cardiac type) | -0.71 | inactive |
| GAS2L3 (growth arrest specific 2 like 3) | 0.55 | inactive |
| GAS2L3 (growth arrest specific 2 like 3) | -0.09 | inactive |
| GAS2L3 (growth arrest specific 2 like 3) | 0.25 | inactive |
| GAS2L3 (growth arrest specific 2 like 3) | 0.44 | inactive |
| VEGFD (vascular endothelial growth factor D) | -0.07 | inactive |
| VEGFD (vascular endothelial growth factor D) | 1.17 | inactive |
| VEGFD (vascular endothelial growth factor D) | 0.96 | inactive |
| VEGFD (vascular endothelial growth factor D) | 2.1 | inactive |
